Laboratory results: PubChem BioAssay AID1259424 (University of Nebraska Medical Center, 2018)
Shown is an unselected part of about 14,000 deposited reagents. 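Higher correlation or smaller distance means closer resemblance to KSR1 loss; control wells, including KSR1 knockdowns, recur on many plates.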 Further read-outs or replicates are left out here. Not given: the time to read-out.

- Aim: 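Seek colon cancer survival genes behaving like KSR1, using a six-gene signature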 (primary screen)
- System: human HCT116 colon cancer cells
- Reagent: siRNA pool against human genes, 50 nM
- Detection: 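Log2 levels of six mRNAs (branched-DNA multiplex), adjusted by two reference genes and the non-targeting median, then scored against the average KSR1 knockdown pattern as Pearson r and euclidean distance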
- Scale: mean correlation with KSR1 profile: higher = expression change more like KSR1 knockdown

What is on record for PSG11?
mean correlation with KSR1 profile: 0.696

Which result is listed for PRPSAP1?
mean correlation with KSR1 profile: 0.0185

What did the screen give for TCEA1?
mean correlation with KSR1 profile: -0.309

For GPR3, what was measured?
mean correlation with KSR1 profile: 0.305

For MTM1, what was measured?
mean correlation with KSR1 profile: -0.174

For CCL15, what does the deposit list?
mean correlation with KSR1 profile: 0.0329

Which result is listed for PAX3?
mean correlation with KSR1 profile: -0.0803

Which result is listed for RUFY3?
mean correlation with KSR1 profile: -0.0642

For GALR2, how do the results read?
mean correlation with KSR1 profile: 0.68

What is on record for NBPF14?
mean correlation with KSR1 profile: -0.499

How did the screen score EDNRB?
mean correlation with KSR1 profile: 0.649

How did the screen score BLM?
mean correlation with KSR1 profile: 0.171

How did the screen score ABI3?
mean correlation with KSR1 profile: -0.04

What is on record for CPLX1?
mean correlation with KSR1 profile: -0.129

With ZNF385B, what was measured?
mean correlation with KSR1 profile: -0.154

For WIPF1, how do the results read?
mean correlation with KSR1 profile: -0.197

How did the screen score HSD3B1?
mean correlation with KSR1 profile: 0.512

With WDR48, how do the results read?
mean correlation with KSR1 profile: -0.191

What did the screen give for DBP?
mean correlation with KSR1 profile: 0.562

For TBC1D2, how do the results read?
mean correlation with KSR1 profile: -0.438

How did the screen score DUSP4?
mean correlation with KSR1 profile: 0.00519

What did the screen give for ABCB8?
mean correlation with KSR1 profile: -0.384

Which result is listed for SMARCD1?
mean correlation with KSR1 profile: -0.333

For KRT38, what was measured?
mean correlation with KSR1 profile: -0.291

Which result is listed for MYH11?
mean correlation with KSR1 profile: 0.843

How did the screen score SDF2?
mean correlation with KSR1 profile: -0.311

For MEMO1, what was measured?
mean correlation with KSR1 profile: -0.0587

For SOX8, how do the results read?
mean correlation with KSR1 profile: -0.00599

A run of entries from the list above, as a working copy:
CPLX1 → mean correlation with KSR1 profile = -0.129
ZNF385B → mean correlation with KSR1 profile = -0.154
